log2 fold change data for 14 targets are collected here from the supplement of paper PMC12819154, “High-throughput peptide-centric local stability assay extends protein–ligand identification to membrane proteins, tissues and bacteria” (Nature Structural & Molecular Biology, 2025).

By UniProt entry, the sequences of proteins in these tests, tags left out. Where a name states a change or a piece, a line headed by the entry shows the natural chain unless it says otherwise.
UniProt A6NJ78: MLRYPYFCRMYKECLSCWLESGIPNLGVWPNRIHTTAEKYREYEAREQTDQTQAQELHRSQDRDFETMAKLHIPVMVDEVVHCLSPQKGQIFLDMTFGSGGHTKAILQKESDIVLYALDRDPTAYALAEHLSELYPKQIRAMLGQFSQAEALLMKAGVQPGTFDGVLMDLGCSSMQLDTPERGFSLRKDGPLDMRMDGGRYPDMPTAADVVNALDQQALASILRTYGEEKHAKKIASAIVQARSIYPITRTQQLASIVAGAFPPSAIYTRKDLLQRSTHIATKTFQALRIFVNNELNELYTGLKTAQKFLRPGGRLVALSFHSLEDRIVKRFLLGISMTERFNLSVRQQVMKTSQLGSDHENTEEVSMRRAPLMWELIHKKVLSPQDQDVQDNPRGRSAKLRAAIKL
UniProt A6NHT5: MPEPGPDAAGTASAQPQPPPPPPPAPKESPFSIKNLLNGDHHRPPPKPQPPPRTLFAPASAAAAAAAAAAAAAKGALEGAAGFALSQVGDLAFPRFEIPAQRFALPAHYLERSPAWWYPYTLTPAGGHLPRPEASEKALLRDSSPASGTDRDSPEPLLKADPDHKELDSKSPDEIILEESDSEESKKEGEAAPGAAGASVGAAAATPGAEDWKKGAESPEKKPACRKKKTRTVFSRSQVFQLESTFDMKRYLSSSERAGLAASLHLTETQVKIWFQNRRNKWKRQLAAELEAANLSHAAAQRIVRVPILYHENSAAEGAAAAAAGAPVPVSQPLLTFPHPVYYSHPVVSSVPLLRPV
UniProt O15164: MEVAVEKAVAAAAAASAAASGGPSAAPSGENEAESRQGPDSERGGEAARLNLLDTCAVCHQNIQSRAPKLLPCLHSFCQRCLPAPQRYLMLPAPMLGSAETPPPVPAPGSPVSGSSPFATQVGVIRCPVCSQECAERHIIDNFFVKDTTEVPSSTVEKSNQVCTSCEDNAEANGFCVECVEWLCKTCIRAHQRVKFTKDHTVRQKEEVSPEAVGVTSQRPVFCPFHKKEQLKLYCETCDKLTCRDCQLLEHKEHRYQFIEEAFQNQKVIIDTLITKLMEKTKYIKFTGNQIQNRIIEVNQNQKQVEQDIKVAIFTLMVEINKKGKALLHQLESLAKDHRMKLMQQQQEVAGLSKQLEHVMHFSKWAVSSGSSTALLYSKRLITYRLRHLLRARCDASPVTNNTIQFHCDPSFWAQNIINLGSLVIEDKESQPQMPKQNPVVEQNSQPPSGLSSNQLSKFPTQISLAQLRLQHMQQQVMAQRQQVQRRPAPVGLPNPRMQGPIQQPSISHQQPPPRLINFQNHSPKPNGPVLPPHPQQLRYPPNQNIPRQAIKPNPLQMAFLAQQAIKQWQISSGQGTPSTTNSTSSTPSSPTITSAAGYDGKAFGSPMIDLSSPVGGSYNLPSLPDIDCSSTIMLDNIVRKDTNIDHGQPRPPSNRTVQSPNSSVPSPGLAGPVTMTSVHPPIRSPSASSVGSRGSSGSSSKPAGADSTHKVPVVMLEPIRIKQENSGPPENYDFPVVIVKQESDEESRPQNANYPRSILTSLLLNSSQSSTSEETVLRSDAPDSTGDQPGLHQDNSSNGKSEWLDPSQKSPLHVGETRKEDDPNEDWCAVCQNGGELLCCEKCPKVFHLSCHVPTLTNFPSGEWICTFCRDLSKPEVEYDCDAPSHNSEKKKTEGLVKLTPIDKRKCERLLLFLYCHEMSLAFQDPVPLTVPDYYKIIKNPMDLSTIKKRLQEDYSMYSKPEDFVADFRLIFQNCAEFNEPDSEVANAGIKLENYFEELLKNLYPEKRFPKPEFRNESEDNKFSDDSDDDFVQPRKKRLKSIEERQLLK
UniProt O00159, whole entry: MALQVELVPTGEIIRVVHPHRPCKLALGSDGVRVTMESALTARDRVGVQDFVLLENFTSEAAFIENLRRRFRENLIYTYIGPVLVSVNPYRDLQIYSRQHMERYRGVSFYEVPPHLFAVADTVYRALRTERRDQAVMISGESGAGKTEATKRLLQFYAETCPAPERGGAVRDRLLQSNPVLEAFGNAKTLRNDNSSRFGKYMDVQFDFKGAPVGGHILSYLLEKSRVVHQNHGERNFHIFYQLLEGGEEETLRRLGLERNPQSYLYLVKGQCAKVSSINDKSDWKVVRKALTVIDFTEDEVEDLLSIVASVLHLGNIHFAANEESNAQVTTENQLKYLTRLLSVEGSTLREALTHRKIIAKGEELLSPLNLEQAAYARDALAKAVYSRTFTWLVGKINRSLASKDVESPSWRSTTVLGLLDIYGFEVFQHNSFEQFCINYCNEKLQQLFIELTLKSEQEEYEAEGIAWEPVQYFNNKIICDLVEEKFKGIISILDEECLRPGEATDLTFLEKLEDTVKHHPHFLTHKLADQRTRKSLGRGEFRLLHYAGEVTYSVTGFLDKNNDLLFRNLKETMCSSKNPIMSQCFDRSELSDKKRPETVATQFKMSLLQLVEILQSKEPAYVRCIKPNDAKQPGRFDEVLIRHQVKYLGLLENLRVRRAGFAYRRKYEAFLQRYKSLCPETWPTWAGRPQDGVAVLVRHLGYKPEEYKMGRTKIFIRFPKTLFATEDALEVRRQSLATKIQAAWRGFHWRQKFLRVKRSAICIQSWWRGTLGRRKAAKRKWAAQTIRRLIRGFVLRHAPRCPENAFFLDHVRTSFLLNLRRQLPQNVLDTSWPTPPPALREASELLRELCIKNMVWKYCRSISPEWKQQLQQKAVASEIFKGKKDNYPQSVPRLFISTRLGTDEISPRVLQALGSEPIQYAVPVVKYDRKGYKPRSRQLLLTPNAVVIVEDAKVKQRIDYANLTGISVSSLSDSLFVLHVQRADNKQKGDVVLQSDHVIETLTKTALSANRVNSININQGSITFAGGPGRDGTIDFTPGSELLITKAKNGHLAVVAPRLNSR
UniProt O14545: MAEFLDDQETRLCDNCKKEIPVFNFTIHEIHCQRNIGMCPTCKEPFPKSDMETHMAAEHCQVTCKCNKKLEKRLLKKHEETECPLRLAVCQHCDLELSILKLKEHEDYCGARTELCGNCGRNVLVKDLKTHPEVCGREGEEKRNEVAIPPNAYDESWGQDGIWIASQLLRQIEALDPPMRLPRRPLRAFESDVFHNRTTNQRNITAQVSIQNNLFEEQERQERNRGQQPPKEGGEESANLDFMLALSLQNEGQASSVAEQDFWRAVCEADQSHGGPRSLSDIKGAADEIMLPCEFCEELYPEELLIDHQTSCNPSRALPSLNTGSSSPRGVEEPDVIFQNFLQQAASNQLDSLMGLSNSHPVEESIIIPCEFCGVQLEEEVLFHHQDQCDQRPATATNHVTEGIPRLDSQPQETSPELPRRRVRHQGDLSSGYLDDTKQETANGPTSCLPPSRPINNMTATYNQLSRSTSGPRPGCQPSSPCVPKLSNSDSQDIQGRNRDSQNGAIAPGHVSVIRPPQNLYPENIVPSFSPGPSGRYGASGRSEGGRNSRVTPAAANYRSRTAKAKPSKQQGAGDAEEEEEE
UniProt O14979: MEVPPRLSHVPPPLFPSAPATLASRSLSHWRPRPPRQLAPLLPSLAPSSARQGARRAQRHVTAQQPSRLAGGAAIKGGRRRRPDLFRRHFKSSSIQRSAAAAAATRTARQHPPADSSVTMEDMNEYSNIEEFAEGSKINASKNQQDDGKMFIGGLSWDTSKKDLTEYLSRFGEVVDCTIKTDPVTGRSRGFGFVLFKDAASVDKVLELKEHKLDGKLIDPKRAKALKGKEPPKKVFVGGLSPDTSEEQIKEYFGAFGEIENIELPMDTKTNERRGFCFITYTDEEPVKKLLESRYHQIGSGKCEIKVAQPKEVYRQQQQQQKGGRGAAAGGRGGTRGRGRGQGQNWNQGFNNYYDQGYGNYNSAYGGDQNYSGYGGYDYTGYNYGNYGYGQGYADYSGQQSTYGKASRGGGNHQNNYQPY
UniProt B2RTY4: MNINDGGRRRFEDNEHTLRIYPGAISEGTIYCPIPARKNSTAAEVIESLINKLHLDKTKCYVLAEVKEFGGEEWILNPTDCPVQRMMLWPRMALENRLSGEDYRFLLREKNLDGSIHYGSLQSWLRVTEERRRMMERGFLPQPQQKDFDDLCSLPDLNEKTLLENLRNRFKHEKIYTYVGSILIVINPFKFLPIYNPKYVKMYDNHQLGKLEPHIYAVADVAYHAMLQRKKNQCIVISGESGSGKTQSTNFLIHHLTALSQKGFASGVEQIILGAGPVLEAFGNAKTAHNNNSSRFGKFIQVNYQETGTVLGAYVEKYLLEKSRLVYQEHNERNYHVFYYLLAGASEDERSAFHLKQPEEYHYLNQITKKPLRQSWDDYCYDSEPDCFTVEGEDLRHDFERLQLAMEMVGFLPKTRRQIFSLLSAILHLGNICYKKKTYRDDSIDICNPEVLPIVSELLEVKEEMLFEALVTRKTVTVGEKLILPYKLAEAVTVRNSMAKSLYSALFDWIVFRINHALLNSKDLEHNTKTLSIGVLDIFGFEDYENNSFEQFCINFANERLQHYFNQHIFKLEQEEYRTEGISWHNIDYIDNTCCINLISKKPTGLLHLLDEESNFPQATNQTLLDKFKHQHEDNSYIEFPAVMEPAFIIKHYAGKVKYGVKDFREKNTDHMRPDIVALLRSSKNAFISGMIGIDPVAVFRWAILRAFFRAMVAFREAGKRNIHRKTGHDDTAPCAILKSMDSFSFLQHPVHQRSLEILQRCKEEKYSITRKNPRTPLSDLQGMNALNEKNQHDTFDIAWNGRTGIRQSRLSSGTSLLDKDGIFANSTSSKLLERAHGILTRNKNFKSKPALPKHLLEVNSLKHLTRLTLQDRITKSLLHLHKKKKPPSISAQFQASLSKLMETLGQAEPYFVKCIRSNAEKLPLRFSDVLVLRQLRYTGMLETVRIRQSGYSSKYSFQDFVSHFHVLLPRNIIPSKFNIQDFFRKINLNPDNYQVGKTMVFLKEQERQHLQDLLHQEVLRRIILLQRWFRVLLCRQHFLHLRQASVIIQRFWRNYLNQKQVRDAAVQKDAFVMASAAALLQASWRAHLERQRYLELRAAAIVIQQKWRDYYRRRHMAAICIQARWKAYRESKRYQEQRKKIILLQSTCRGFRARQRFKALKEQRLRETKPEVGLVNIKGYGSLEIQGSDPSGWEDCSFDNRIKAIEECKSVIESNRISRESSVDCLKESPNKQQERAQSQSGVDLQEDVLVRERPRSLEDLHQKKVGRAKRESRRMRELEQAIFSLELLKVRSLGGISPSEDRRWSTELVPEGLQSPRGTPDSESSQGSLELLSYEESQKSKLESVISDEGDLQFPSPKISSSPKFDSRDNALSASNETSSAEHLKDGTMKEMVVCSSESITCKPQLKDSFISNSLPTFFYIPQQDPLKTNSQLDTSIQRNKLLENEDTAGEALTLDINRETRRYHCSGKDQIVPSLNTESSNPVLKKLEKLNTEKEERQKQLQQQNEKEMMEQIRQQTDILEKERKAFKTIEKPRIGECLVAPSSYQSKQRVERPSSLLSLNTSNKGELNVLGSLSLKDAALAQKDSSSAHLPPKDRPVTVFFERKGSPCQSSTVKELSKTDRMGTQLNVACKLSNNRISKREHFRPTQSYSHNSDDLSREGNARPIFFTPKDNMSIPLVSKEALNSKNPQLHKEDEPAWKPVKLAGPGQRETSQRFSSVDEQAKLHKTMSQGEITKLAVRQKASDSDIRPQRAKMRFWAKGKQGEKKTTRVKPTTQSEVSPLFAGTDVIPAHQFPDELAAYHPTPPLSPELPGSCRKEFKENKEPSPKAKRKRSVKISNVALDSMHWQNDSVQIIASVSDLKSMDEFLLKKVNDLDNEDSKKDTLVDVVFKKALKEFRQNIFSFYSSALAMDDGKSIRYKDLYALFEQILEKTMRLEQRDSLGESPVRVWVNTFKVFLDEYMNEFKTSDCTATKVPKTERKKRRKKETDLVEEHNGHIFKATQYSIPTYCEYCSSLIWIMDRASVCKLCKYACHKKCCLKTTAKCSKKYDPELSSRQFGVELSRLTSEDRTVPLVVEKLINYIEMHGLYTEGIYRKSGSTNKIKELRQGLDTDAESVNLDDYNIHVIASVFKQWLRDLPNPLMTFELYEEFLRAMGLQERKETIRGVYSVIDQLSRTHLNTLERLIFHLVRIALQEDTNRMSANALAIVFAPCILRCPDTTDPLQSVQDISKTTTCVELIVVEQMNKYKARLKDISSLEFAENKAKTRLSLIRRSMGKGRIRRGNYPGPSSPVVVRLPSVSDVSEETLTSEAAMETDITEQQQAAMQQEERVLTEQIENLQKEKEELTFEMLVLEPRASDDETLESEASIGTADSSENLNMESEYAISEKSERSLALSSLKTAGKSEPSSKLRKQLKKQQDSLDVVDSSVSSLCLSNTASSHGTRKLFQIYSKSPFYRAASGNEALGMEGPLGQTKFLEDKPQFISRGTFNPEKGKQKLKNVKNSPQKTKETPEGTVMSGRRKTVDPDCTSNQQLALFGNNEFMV

Some of the results follow. Most values lie at the level of the controls, where differences are scatter.

Compound in the assay: CN[C@@H]1C[C@H]2O[C@@](C)([C@@H]1OC)n1c3ccccc3c3c4c(c5c6ccccc6n2c5c31)C(=O)NC4 [staurosporine]
The assay can be described thus: log2 fold change of tryptic peptide abundance, ligand vs vehicle (limited proteolysis) (log2 ratio); higher = more trypsin-susceptible (destabilized). To be noted: ligand concentration: 20 uM; sample: K562 cleared lysate; digestion: 4 min, 22 C (HT-PELSA RT4min, Orbitrap Astral).
For “UniProt A6NJ78 (peptide sequence: RAPLMWELIHK, peptide start residue: 370)”, the log2 fold change came out at 0.623.

Turning to “HMX3 (peptide sequence: TLFAPASAAAAAAAAAAAAAK, peptide start residue: 54) (UniProt A6NHT5)”, the log2 fold change came to 0.357.

As for “UniProt A6NFQ7 (peptide sequence: KRTMFTK, peptide start residue: 19)”, the log2 fold change stood at 0.0586.

Consider “NDC80 (peptide sequence: LKDLFNVDAFKLESLEAK, peptide start residue: 254) (UniProt O14777)”, for which the log2 fold change turned out to be 0.481.

Consider “PSMA7 (peptide sequence: DIVVLGVEK, peptide start residue: 39) (UniProt O14818)”, for which the log2 fold change was -0.19.

On to “TRIM24 (peptide sequence: ALLHQLESLAK, peptide start residue: 326) (UniProt O15164)”, for which the log2 fold change stood at 0.221.

On to “PIK3CD (peptide sequence: GSGELYEHEKDLVWK, peptide start residue: 519) (UniProt O00329)”, for which the log2 fold change is -0.383.

Consider “MYO1C (peptide sequence: VNSININQGSITFAGGPGR, peptide start residue: 1013) (UniProt O00159)”, for which the log2 fold change is -0.266.

As for “UniProt O00148 (peptide sequence: HFVLDECDK, peptide start residue: 191)”, the log2 fold change turned out to be 0.139.

In the case of “ARPC1B (peptide sequence: ERFQNLDKK, peptide start residue: 300) (UniProt O15143)”, the log2 fold change was determined as 0.259.

For the target “TRAFD1 (peptide sequence: QIEALDPPMR, peptide start residue: 171) (UniProt O14545)”, the log2 fold change is -0.103.

Turning to “UniProt O14979 (peptide sequence: GFGFVLFKDAASVDKVLELK, peptide start residue: 190)”, the log2 fold change worked out at 0.309.

On to “UniProt A6NI28 (peptide sequence: GITILGLYR, peptide start residue: 409)”, for which the log2 fold change is -0.0774.

Consider “MYO9A (peptide sequence: GVYSVIDQLSR, peptide start residue: 2169) (UniProt B2RTY4)”, for which the log2 fold change worked out at 0.346.
